Measurements reported in PubChem BioAssay AID1259297 (Sanger Institute, 2017)
Test: 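siRNA screen across the kinome seeking drug partners in cells of colorectal cancer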 (primary screen). Cell system: human RCM1 colorectal cancer cell line. Reagents: siRNA pool against human genes. Conditions: separate arms: DMSO vehicle, or one anchor drug at a mild dose: BYL719 1 µM, cetuximab 5 µg/ml, trametinib 10 nM. Measured: 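Replicate-mean well viability as a share of non-targeting pool control, a robust z-score without drug, and synergy scores for BYL719, cetuximab and trametinib arms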. Reading the numbers: viability z-score, knock-down alone: higher = more viable cells than non-targeting controls; viability, knock-down alone (DMSO): higher = more viable cells; synergy score with trametinib: higher = stronger combined killing with trametinib; synergy score with BYL719: higher = stronger combined killing with BYL719; synergy score with cetuximab: higher = stronger combined killing with cetuximab. Hit rule: 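Called essential if knock-down without drug gives a viability robust z-score under -3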. Meaning of the calls: active = essential when knocked down alone; inactive = no clear loss of viability alone.
The whole screen tested 794 reagents; this is an unselected part. Over the whole deposit, 13 (1.6%) got an active call. 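Calls reflect knock-down without drug only; drug synergy is judged separately, with scores above 0.15 counted as synergy.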 Viability is capped at 1. Reagent sequences are not shown. Not given: the amount of reagent, the time to read-out.

no.	Target gene	viability z-score, knock-down alone	viability, knock-down alone (DMSO) (fraction of control)	synergy score with trametinib	synergy score with BYL719	synergy score with cetuximab	outcome
1	NRBP1 (nuclear receptor binding protein 1)	0.737	0.985	0.117	-0.0094	-0.113	inactive
2	CAMKK2 (calcium/calmodulin dependent protein kinase kinase 2)	-0.0192	0.915	0.0107	-0.0397	-0.193	inactive
3	PRPS1L1 (phosphoribosyl pyrophosphate synthetase 1 like 1)	0.583	0.971	0.0507	-0.00309	-0.0178	inactive
4	PIK3CB	0.148	0.93	0.023	-0.0327	-0.129	inactive
5	BCOR (BCL6 corepressor)	-1.07	0.817	0.0534	-0.0646	-0.0466	inactive
6	TEC (tec protein tyrosine kinase)	-1.44	0.783	0.0229	-0.172	-0.104	inactive
7	RPS6KA1 (ribosomal protein S6 kinase A1)	0.9	1	0.0232	-0.0728	-0.118	inactive
8	GTF2H1 (general transcription factor IIH subunit 1)	-1.35	0.791	-0.0223	0.0859	-0.0237	inactive
9	ADCK5 (aarF domain containing kinase 5)	-0.574	0.863	0.0369	-0.0463	0.00526	inactive

2 of these entries, set out differently:
GTF2H1 (general transcription factor IIH subunit 1)
- viability z-score, knock-down alone: -1.35
- viability, knock-down alone (DMSO) (fraction of control): 0.791
- synergy score with trametinib: -0.0223
- synergy score with BYL719: 0.0859
- synergy score with cetuximab: -0.0237
- outcome: inactive

ADCK5 (aarF domain containing kinase 5)
- viability z-score, knock-down alone: -0.574
- viability, knock-down alone (DMSO) (fraction of control): 0.863
- synergy score with trametinib: 0.0369
- synergy score with BYL719: -0.0463
- synergy score with cetuximab: 0.00526
- outcome: inactive

Further results:
no.	Target gene	viability z-score, knock-down alone	viability, knock-down alone (DMSO) (fraction of control)	synergy score with trametinib	synergy score with BYL719	synergy score with cetuximab	outcome
10	SPHK1 (sphingosine kinase 1)	0.141	0.93	0.0205	-0.057	0.00246	inactive
11	PTK2B (protein tyrosine kinase 2 beta)	-0.903	0.833	-0.0252	-0.0453	-0.141	inactive
12	PDGFRL (platelet derived growth factor receptor like)	0.81	0.992	0.108	0.0425	-0.108	inactive
13	PIP4K2A (phosphatidylinositol-5-phosphate 4-kinase type 2 alpha)	0.9	1	-0.108	-0.0728	-0.118	inactive
14	PCK2 (phosphoenolpyruvate carboxykinase 2, mitochondrial)	0.887	0.999	0.0401	-0.0627	-0.119	inactive
15	TP53BP1 (tumor protein p53 binding protein 1)	0.9	1	0.0742	-0.0383	-0.106	inactive
16	MAST4	0.0889	0.925	-0.0807	-0.0202	-0.185	inactive
17	PI4KA (phosphatidylinositol 4-kinase alpha)	0.01	0.917	0.197	0.09	-0.0354	inactive
18	LMTK1 (lemur tail kinase 1)	-1.38	0.788	0.0346	-0.157	-0.0568	inactive
19	GRK6 (G protein-coupled receptor kinase 6)	-0.556	0.865	-0.0079	-0.037	-0.105	inactive
20	RIPK1 (receptor interacting serine/threonine kinase 1)	-0.0584	0.911	0.00572	-0.0847	-0.0269	inactive
